Measurements reported in PubChem BioAssay AID1508597 (Cure First, 2020).
This is a random part of the about 2,100 reagents, under one of the conditions tested. 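Calls flag viability under 80% in either arm, not effects specific to rucaparib; the reference for percent is not stated.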 A number with no mark means an inactive call. A reagent listed more than once was tested more than once; the source does not tell the runs apart. Reagent sequences are not shown. The record does not give: the 100% reference.

Purpose: 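Knock-downs altering ovarian cancer cell survival with or without PARP inhibitor rucaparib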 (primary screen)
Cells: human ovarian carcinoma lines grown from tumours: OCI-P5x (papillary serous) and OCI-C5x (clear cell)
Reagents: siRNA pool against human genes, 1.25 pmol siRNA per well
Timing: 72 h or 96 h, depending on the cell culture
Challenge: rucaparib 20 µM (about IC30) or vehicle, present until read-out
Rucaparib or vehicle: Vehicle
Cell line: OCI-P5x (serous)
Measurement: 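ATP luminescence measured at 72 or 96 h according to the culture, then normalised and expressed as percent viability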
Reading the numbers: viability, normalised: higher = more viable cells remaining
Active means: 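Active when normalised viability falls below 80 percent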
Meaning of the calls: active = viability under 80%; inactive = viability 80% or more

gene,technical replicate,"viability, normalised (%)"
CHMP2A,1,41.7 (active)
CHMP2A,2,45.6 (active)
CHMP2A,3,37.6 (active)
MVK,1,103
MVK,2,90.5
MVK,3,97.2
TYRO3,1,84.7
TYRO3,2,63.6 (active)
TYRO3,3,74.7 (active)
PHKG1,1,44.9 (active)
PHKG1,2,56 (active)
PHKG1,3,47.4 (active)
TNNI3K,1,69 (active)
TNNI3K,2,75.6 (active)
TNNI3K,3,91.9
PRDM8,1,50.5 (active)
PRDM8,2,60.6 (active)
PRDM8,3,75.9 (active)
MYC,1,43.3 (active)
MYC,2,45.6 (active)
MYC,3,51.3 (active)
KDM6B,1,67.7 (active)
KDM6B,2,73.7 (active)
KDM6B,3,64.2 (active)
LIG4,1,82.9
LIG4,1,65.1 (active)
LIG4,2,58.2 (active)
LIG4,2,88.2
LIG4,3,90.5
LIG4,3,68 (active)
NCOA3,1,45.1 (active)
NCOA3,2,53.2 (active)
NCOA3,3,53.2 (active)
ULK3,1,70.5 (active)
ULK3,2,50.7 (active)
ULK3,3,66.7 (active)
SLC16A2,1,53.1 (active)
SLC16A2,2,54.9 (active)
SLC16A2,3,65.9 (active)
PLG,1,69 (active)
PLG,2,71.7 (active)
PLG,3,158
PIP4K2A,1,69 (active)
PIP4K2A,2,55.2 (active)
PIP4K2A,3,59.6 (active)
BTG2,1,84.8
BTG2,2,84.9
BTG2,3,85.2
ZSCAN21,1,89.6
ZSCAN21,2,84.7
ZSCAN21,3,83.1
GLI3,1,67.7 (active)
GLI3,2,80 (active)
GLI3,3,133
SMARCA5,1,58.3 (active)
SMARCA5,2,41.7 (active)
SMARCA5,3,62.9 (active)

5 consecutive reagents already listed, for reference:
gene,technical replicate,"viability, normalised (%)"
PIP4K2A,3,59.6 (active)
BTG2,1,84.8
BTG2,2,84.9
BTG2,3,85.2
ZSCAN21,1,89.6
